The whole screen tested about 400,000 compounds, of which about 13,000 (3.2%) were called active. The inconclusive results got no clear call from the source; some entries with a clear call stand among them for comparison. The call rests on the fitted dose curve; in most records, active means well fitted cell-killing curve with a large enough effect; inconclusive means small, poorly fitted or top-dose-only effect, or effect the other way; inactive means flat fitted curve, though single readings scatter. Potencies beside an inconclusive call are fits to weak or partial responses and may not hold up.
assay: qHTS assay for MDR1-selective chemotherapeutics: Primary screen using the drug-selected MDR subline cells KB-V1; details: KB-V1 MDR cells viability, CellTiter-Glo, 72 h; activity change, negative = cytotoxicity: at 46.1 µM (top of the series); further: nearly all actives have a fitted effect of over 60% in size
Outline: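 KB-V1 cells (P-gp-expressing MDR subline of KB-3-1) in phenol-red-free DMEM with 10% FBS were exposed to library compounds over a concentration series for 72 h at 37 degrees C. Viability read by CellTiter-Glo luminescence; concentration-effect curves fitted after normalization.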
On the % scale 0 is the no-effect control and ±100 the full control effect; potency means the concentration at half of the fitted maximal effect.

SMILES	Potency	activity change, negative = cytotoxicity
O=C(CNC(=O)c1cccc(F)c1)OCC(=O)N1CCN(C(=O)c2ccco2)CC1	inconclusive: 29.1 µM [rising, single point]	
Nc1[nH][nH]c(=O)c1N=Nc1cccc(Cl)c1	inconclusive: 29.1 µM [cytotoxic, single point]	
Cc1cc(Cl)n2c(nc3cc(F)c(F)cc32)c1C#N	active: 5.8 µM	
O=S(=O)(NCCc1ccccc1)c1cccc2nsnc12	inconclusive: 29.1 µM [cytotoxic, single point]	
COc1ccc(-c2nnn(CC(=O)NCc3ccccc3)n2)cc1OC	inconclusive: 16.4 µM [cytotoxic, single point]	
c1ccc2c(c1)CCN(c1nc(CN3CCOCC3)nc3sc4c(c13)CCCC4)C2	inconclusive: 29.1 µM [cytotoxic, single point]	
Cc1oc(C(C)(C)C)cc1C(=O)N1CCN(c2ncccc2C(F)(F)F)CC1		inactive: -9.12%
O=C1c2ccccc2C(=O)N1S(=O)(=O)c1ccccc1	inconclusive: 29.1 µM [rising, single point]	
Cc1ccc(S(=O)(=O)c2nc(-c3ccco3)oc2SCC(N)=O)cc1	inconclusive: 18.4 µM [cytotoxic, single point]	
COc1cc(CNc2ncnc3c2[nH]c2ccc(C)cc23)cc(OC)c1	inconclusive: 13 µM [cytotoxic, partial curve]	
O=C(CSc1nc2ccccc2nc1SCC(=O)N1CCOCC1)N1CCOCC1		inconclusive: 4.19%
COc1ccc(C(C)=O)cc1CN(C)C	inconclusive: 29.1 µM [rising, single point]	
CSCC[C@H](NC(=O)COc1ccc(Cl)cc1)c1nc2ccccc2[nH]1	inconclusive: 5.8 µM [cytotoxic, full curve]	
Cc1nc(SCC(=O)Nc2ccc(F)cc2)c2oc3ccccc3c2n1		inactive: -6.91%
C[C@H](CO)N1C[C@H](C)[C@@H](CN(C)S(=O)(=O)c2ccccc2)Oc2ccc(NC(=O)C3CCCCC3)cc2C1=O		inactive: 11.4%
COc1ccc(-c2cc3nc(C)cc(N)n3n2)cc1	inconclusive: 11.6 µM [cytotoxic, partial curve, poor fit]	
Nc1nc(O)c(N=Nc2ccc(S(N)(=O)=O)cc2)c(=O)[nH]1	inconclusive: 14.6 µM [rising, partial curve, poor fit]	
O=c1[nH]c(C2CCCN(S(=O)(=O)c3ccc(F)cc3)C2)nc2c1nnn2Cc1ccc(F)cc1 (centres undefined)		inactive: -18.4%
CCCCOC(=O)c1ccc(N=Nc2c(C)c(C#N)c(O)[nH]c2=O)cc1	inconclusive: 11.6 µM [rising, partial curve, poor fit]	
CN(Cc1ccccc1)C1(CNC(=O)CCC(F)(F)F)Cc2ccccc2C1	inconclusive: 20.6 µM [cytotoxic, single point]	
COc1ccc(-c2cccc(NS(=O)(=O)c3ccc([N+](=O)[O-])cc3)c2)nn1	active: 13 µM	
CCOc1cc(CNc2ccccc2)cc(Br)c1OCC(=O)NC(C)(C)C	inconclusive: 23.1 µM [cytotoxic, single point]	
O=C(Nc1cn(-c2ccccc2)nc1-c1ccccc1)c1ccccc1	inconclusive: 8.2 µM [cytotoxic, partial curve]	
CCc1nn(CC(=O)NC(C)CCc2ccccc2)c(=O)c2cc3c(OC)cccc3n12 (centres undefined)		inactive: -11.5%
O=C1OC2C(O)COC23OC(O)CCC13O (centres undefined)		inactive: 8.29%

SMILES	Potency	activity change, negative = cytotoxicity
O=C(COc1ccc(S(=O)(=O)NC2CCCCC2)cc1Cl)NCc1ccc2c(c1)OCO2	inconclusive: 11.6 µM [cytotoxic, single point]	
CC(=O)c1ccc(Nc2cc(C)nc3nc(Cc4ccc(Cl)cc4)nn23)cc1		inactive: 2.32%
CC(C)C[C@H](NC(=O)c1nc[nH]c1C(=O)NCC(=O)OCc1ccccc1)C(=O)OCc1ccccc1	inconclusive: 0.461 µM [rising, full curve, poor fit]	
O=C(CN1C(=O)CCC1=O)Nc1ccc2c3c(cccc13)CC2	inconclusive: 23.1 µM [rising, partial curve]	
Cc1ccc(OCCn2cc(Br)c(=O)[nH]c2=O)cc1		inactive: 10.5%
CC(=O)Nc1cccc(NC(=O)c2cccc(OCc3ccccc3)c2)c1		inactive: -9.72%
CCc1ccc2oc(C(=O)Nc3cc(C)ccc3C)cc(=O)c2c1		inactive: -18.5%
Cc1ccc2nc(N3C(=O)CNC3=S)sc2c1	inconclusive: 25.9 µM [cytotoxic, single point]	
Clc1ccc(CSc2nnc(-c3ccncc3)o2)c(Cl)c1	inconclusive: 22.4 µM [cytotoxic, single point]	
Cc1ccccc1CN(C)CCS(=O)(=O)c1cc(Cl)ccc1Cl	inconclusive: 32.6 µM [cytotoxic, single point]	
CCn1ncc(Br)c1C(=O)Nc1c(C)nn(Cc2c(F)c(F)c(F)c(F)c2F)c1C	inconclusive: 10.3 µM [cytotoxic, partial curve, poor fit]	
COc1cccc(OC)c1C(=O)Nc1cccc(-c2nc3ccccc3[nH]2)c1	inconclusive: 18.4 µM [cytotoxic, partial curve, poor fit]	
CCSc1ccc([C@@H]2[C@H]3C(=O)N(C)C(=O)[C@H]3[C@]3(C(=O)OC)CCCCN23)cc1	inconclusive: 29.1 µM [cytotoxic, single point]	
CC1CCCCN1S(=O)(=O)c1ccc(C(=O)Nc2nnc(-c3cccs3)o2)cc1 (centres undefined)	inconclusive: 3.66 µM [cytotoxic, full curve]	
COc1ccc(CN(CCC#N)CCC2(c3ccccc3)CC(C)N(C)CC2C)cc1OC (centres undefined)		inactive: -7.48%
Cc1cccc(NS(=O)(=O)c2nnc(NC(=O)CC(C)C)s2)c1	inconclusive: 25.9 µM [rising, single point]	
COc1cc(-c2nc3ccccn3c2NCC2CCCO2)ccc1O (centres undefined)	inconclusive: 35.5 µM [cytotoxic, single point]	
Cc1ccc2cc(C#N)c(NCCNC(=O)C3CCC3)nc2c1C	active: 14.6 µM	
O=C1CCCN1CCCNCCCn1cnc2c(OCc3ccccc3)ncnc21	inconclusive: 29.1 µM [rising, single point]	
C/C(=N\Nc1ccc2nncn2n1)c1cccs1	inconclusive: 29.1 µM [cytotoxic, single point]	
CCn1nc(C)c(C(=O)Nc2cc(Oc3ccc(Cl)cc3)cc([N+](=O)[O-])c2)c1C	inconclusive: 14.6 µM [cytotoxic, single point]	
CCN(Cc1ccccc1)S(=O)(=O)c1c(C)[nH]c(C)c1C(=O)N1CCCCC1		inactive: -7.47%
COc1cccc(OCc2nnc(SC)n2C)c1	inconclusive: 20.6 µM [cytotoxic, partial curve, poor fit]	
Cc1ccc(C(=O)Nc2ccccc2C(=O)NCc2ccccc2)cc1	active: 4.61 µM	
CC1CN(C(=O)Nc2ccccc2)c2ccccc2-[n+]2ccsc21 (centres undefined)		inactive: 20%

Single records, from the list above.
CC1CN(C(=O)Nc2ccccc2)c2ccccc2-[n+]2ccsc21 (centres undefined) is entered as activity change, negative = cytotoxicity: inactive: 20%
CC(C)C[C@H](NC(=O)c1nc[nH]c1C(=O)NCC(=O)OCc1ccccc1)C(=O)OCc1ccccc1 is entered as Potency: inconclusive: 0.461 µM [rising, full curve, poor fit]
CCSc1ccc([C@@H]2[C@H]3C(=O)N(C)C(=O)[C@H]3[C@]3(C(=O)OC)CCCCN23)cc1 is entered as Potency: inconclusive: 29.1 µM [cytotoxic, single point]
Cc1cccc(NS(=O)(=O)c2nnc(NC(=O)CC(C)C)s2)c1 is entered as Potency: inconclusive: 25.9 µM [rising, single point]

(listing goes on)

SMILES	Potency	activity change, negative = cytotoxicity
N/C(=N\OC(=O)COc1ccc2ccccc2c1)c1cccnc1	inconclusive: 20.6 µM [cytotoxic, single point]	
CN1CCN(NC(=O)Nc2ccc(F)cc2)CC1	inconclusive: 20.6 µM [rising, single point]	
COc1ccc(-c2csc3ncnc(N4CCN(Cc5ccccc5)CC4)c23)cc1	inconclusive: 8.2 µM [cytotoxic, partial curve]	
CC1(C)CC(=O)C2=C(C1)OC1=C(C2)C(=O)CC(C)(C)C1	inconclusive: 16.4 µM [cytotoxic, single point]	
Cc1ccc(C)c(N2CCN(S(=O)(=O)c3cccc4cccnc34)CC2)c1	inconclusive: 14.6 µM [cytotoxic, partial curve, poor fit]	
COc1ccc(C2/C(=C(/O)c3ccc(Cl)cc3)C(=O)C(=O)N2CCN2CCOCC2)c(OC)c1 (centres undefined)	inconclusive: 29.1 µM [rising, single point]	
CCCOc1ccc(CNC(=O)c2ccc(-n3c(C)cc4c3CCC(C)C4)cc2)cc1 (centres undefined)		inactive: -11%
COc1ccc(CNC(=O)c2cn(Cc3ccccc3OC)c(=O)s2)cc1	active: 7.31 µM	
CCOc1ccc(C2NC(=O)c3c(COC)cc(C)nc3N2Cc2ccccc2)cc1OC (centres undefined)		inactive: 0%
O=C(Nc1ccc2c(c1)OCO2)c1ccc2c(c1)OCO2		inactive: -22.9%
CCN(C(=O)CSc1nc2ccccc2[nH]1)c1ccccc1		inactive: -9.73%
Cc1cc(C)n(-c2cc(C(C)(C)C)nc3c(-c4ccc(Cl)cc4)cnn23)n1		inactive: 0%
CC(=O)NCCOC(=O)c1nn(Cc2ccccc2)c(=O)c2ccccc12		inactive: -7.85%
CCCOc1ccc(OCCSc2nnc(N)s2)cc1	inconclusive: 18.4 µM [cytotoxic, single point]	
Cc1cc(C)nc(N/N=C/c2ccccc2)n1		inactive: -2.14%
CCOc1ccccc1N(CC(=O)NC1CCCCC1)C(=O)CCC(=O)Nc1nccs1		inactive: -27.2%
COc1cccc(CNC(=O)c2cc3oc4ccccc4c3n2C)c1OC	active: 6.51 µM	
CC(CN1CCCCC1)OC(=O)CCc1ccccc1 (centres undefined)		inactive: 0.0146%
COc1ccccc1CNC(=O)c1cc(C2CC2)nc2c1cnn2C(C)C	active: 2.91 µM	
CCOc1ccccc1NC(=O)CCCNC(=O)c1ccc(Cl)cc1	inconclusive: 13 µM [cytotoxic, partial curve]	
Cc1ccc(NC(=O)CSc2nnc3ccccn23)c(Cl)c1		inactive: -11.3%
CCOC(=O)c1ccc(-c2cccc(-c3cc(=O)oc4cc(OC)cc(OC)c34)c2)cc1		inactive: 0.0002%
Cc1ccc(C)c(N2CCN(C(=O)c3ccc4c(c3)N(Cc3ccc(F)cc3)C(=O)c3ccccc3S4=O)CC2)c1 (centres undefined)		inactive: -14.5%
CCN(CC)S(=O)(=O)c1ccc(Cl)c(C(=O)NC(C)C(c2cccs2)N2CCCC2)c1 (centres undefined)	inconclusive: 5.17 µM [cytotoxic, partial curve, poor fit]	

— PubChem BioAssay AID1347076 (National Center for Advancing Translational Sciences (NCATS), 2019)
